Results reported in paper PMC9531463.
These are yes or no findings as the source states them, for the method shown. In cells and extracts the contact can be indirect.

Target: T1, cAMP Responsive Element Binding Protein 3 Like 1 (CREB3L1) (human (endogenous in 8505C)) (UniProt Q96BA8)
T1 sequence: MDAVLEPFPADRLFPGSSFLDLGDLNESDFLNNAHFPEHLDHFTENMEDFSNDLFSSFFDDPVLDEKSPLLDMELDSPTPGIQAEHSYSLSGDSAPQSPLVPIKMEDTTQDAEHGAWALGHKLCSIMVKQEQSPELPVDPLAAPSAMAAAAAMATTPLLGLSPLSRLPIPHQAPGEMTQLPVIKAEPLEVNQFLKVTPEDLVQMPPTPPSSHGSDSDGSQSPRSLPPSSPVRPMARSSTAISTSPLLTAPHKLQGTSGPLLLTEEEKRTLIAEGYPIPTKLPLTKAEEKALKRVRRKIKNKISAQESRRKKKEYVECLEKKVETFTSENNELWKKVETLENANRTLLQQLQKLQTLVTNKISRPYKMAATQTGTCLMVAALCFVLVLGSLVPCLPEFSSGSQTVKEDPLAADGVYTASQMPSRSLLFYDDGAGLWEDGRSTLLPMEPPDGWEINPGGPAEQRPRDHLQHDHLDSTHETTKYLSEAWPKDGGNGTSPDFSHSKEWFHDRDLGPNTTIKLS
Test: co-IP; endogenous proteins; 8505C cells (legend: different thyroid cancer cells) lysed in IP buffer, immunoprecipitated with anti-CREB3L1 antibody, Protein A/G magnetic beads, washed three times with IP buffer, western blot

binding: no binding
Substance: Importin Beta (human (endogenous in 8505C))
